Taken from: PubChem BioAssay AID1259425 (University of Nebraska Medical Center, 2018)
This is a random part of about 14,000 reagents. Further read-outs or replicates are left out here. Not stated in the record: the time to read-out.

Screen: 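Compare each knockdown with KSR1 silencing using changes in marker transcripts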 (primary screen)
Cell system: HCT116 human colon cancer cells
Knock-down reagent: siRNA pool against human genes, 50 nM siRNA
Read-out: 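After 50 nM siRNA pool, branched-DNA assay measures six marker transcripts per well, minus blank, normalised to the geometric mean of two housekeeping transcripts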
Reading the numbers: BNIP3L mRNA: higher = more BNIP3L transcript after knockdown; NDRG1 mRNA: higher = more NDRG1 transcript after knockdown

DCDC2 (GeneID 51473) showed BNIP3L mRNA, set 1 = 0.136; NDRG1 mRNA, set 1 = 0.117.
With knock-down of ATF7 (GeneID 11016), the screen gave BNIP3L mRNA, set 1 = 0.0604; NDRG1 mRNA, set 1 = 0.306.
With knock-down of TMEM132B (GeneID 114795), the screen gave BNIP3L mRNA, set 1 = 0.115; NDRG1 mRNA, set 1 = 0.657.
After knock-down of SPATA9 (GeneID 83890) the results were BNIP3L mRNA, set 1 = 0.135; NDRG1 mRNA, set 1 = 0.122.
With knock-down of CUEDC2 (GeneID 79004) the results were BNIP3L mRNA, set 1 = 0.149; NDRG1 mRNA, set 1 = 0.248.
CES1P1 (GeneID 51716) gave BNIP3L mRNA, set 1 = 0.0574; NDRG1 mRNA, set 1 = 0.153.
For CDH3 (GeneID 1001), the entry reads BNIP3L mRNA, set 1 = 0.0967; NDRG1 mRNA, set 1 = 0.207.
After knock-down of SNAP25 (GeneID 6616), the screen gave BNIP3L mRNA, set 1 = 0.198; NDRG1 mRNA, set 1 = 0.333.
Depletion of KDM4B (GeneID 23030) came out at: BNIP3L mRNA, set 1 = 0.172; NDRG1 mRNA, set 1 = 0.184.
After knock-down of METTL14 (GeneID 57721), the record shows BNIP3L mRNA, set 1 = 0.12; NDRG1 mRNA, set 1 = 0.116.
With knock-down of INAVA (GeneID 55765), the record shows BNIP3L mRNA, set 1 = 0.052; NDRG1 mRNA, set 1 = 0.4.
Silencing of PERP (GeneID 64065) gave: BNIP3L mRNA, set 1 = 0.102; NDRG1 mRNA, set 1 = 0.175.
SLC30A9 (GeneID 10463) showed BNIP3L mRNA, set 1 = 0.148; NDRG1 mRNA, set 1 = 0.694.
After knock-down of LY6E (GeneID 4061), the record shows BNIP3L mRNA, set 1 = 0.0928; NDRG1 mRNA, set 1 = 0.391.
After knock-down of WDFY3 (GeneID 23001) the results were BNIP3L mRNA, set 1 = 0.116; NDRG1 mRNA, set 1 = 0.196.
For ZNF354A (GeneID 6940) the deposit lists BNIP3L mRNA, set 1 = 0.0891; NDRG1 mRNA, set 1 = 0.138.
SLC29A2 (GeneID 3177) scored BNIP3L mRNA, set 1 = 0.177; NDRG1 mRNA, set 1 = 0.514.
Against MAP7D1 (GeneID 55700), the entry reads BNIP3L mRNA, set 1 = 0.133; NDRG1 mRNA, set 1 = 0.175.
Knock-down of PCBD1 (GeneID 5092) resulted in: BNIP3L mRNA, set 1 = 0.183; NDRG1 mRNA, set 1 = 0.519.
Knock-down of DKK4 (GeneID 27121) resulted in: BNIP3L mRNA, set 1 = 0.0931; NDRG1 mRNA, set 1 = 0.404.
Knock-down of ELOF1 (GeneID 84337) resulted in: BNIP3L mRNA, set 1 = 0.211; NDRG1 mRNA, set 1 = 0.253.
With knock-down of WASHC3 (GeneID 51019), the record shows BNIP3L mRNA, set 1 = 0.0615; NDRG1 mRNA, set 1 = 0.239.
With knock-down of WDPCP (GeneID 51057), the record shows BNIP3L mRNA, set 1 = 0.0877; NDRG1 mRNA, set 1 = 0.295.
Silencing of AKR1B10 (GeneID 57016) gave: BNIP3L mRNA, set 1 = 0.115; NDRG1 mRNA, set 1 = 0.12.
Silencing of MEAK7 (GeneID 57707) resulted in: BNIP3L mRNA, set 1 = 0.307; NDRG1 mRNA, set 1 = 0.997.
Knock-down of KIRREL2 (GeneID 84063) resulted in: BNIP3L mRNA, set 1 = 0.21; NDRG1 mRNA, set 1 = 0.266.
SIN3A (GeneID 25942) gave BNIP3L mRNA, set 1 = 0.38; NDRG1 mRNA, set 1 = 0.633.
DDX17 (GeneID 10521) scored BNIP3L mRNA, set 1 = 0.0708; NDRG1 mRNA, set 1 = 0.229.
Knock-down of STARD10 (GeneID 10809) came out at: BNIP3L mRNA, set 1 = 0.126; NDRG1 mRNA, set 1 = 0.612.
Knock-down of ENOSF1 (GeneID 55556) resulted in: BNIP3L mRNA, set 1 = 0.275; NDRG1 mRNA, set 1 = 0.757.
PYY (GeneID 5697) showed BNIP3L mRNA, set 1 = 0.1; NDRG1 mRNA, set 1 = 0.164.
Silencing of ARID3B (GeneID 10620) resulted in: BNIP3L mRNA, set 1 = 0.109; NDRG1 mRNA, set 1 = 0.433.
After knock-down of ADCK2 (GeneID 90956), the record shows BNIP3L mRNA, set 1 = 0.069; NDRG1 mRNA, set 1 = 0.161.
Against HELLS (GeneID 3070), the entry reads BNIP3L mRNA, set 1 = 0.126; NDRG1 mRNA, set 1 = 0.195.
Silencing of GALT (GeneID 2592) came out at: BNIP3L mRNA, set 1 = 0.208; NDRG1 mRNA, set 1 = 0.294.
Against YBX1 (GeneID 4904) the deposit lists BNIP3L mRNA, set 1 = 0.19; NDRG1 mRNA, set 1 = 0.232.

Entries listed so far whose target name starts with K or k (2):
KDM4B (GeneID 23030) → BNIP3L mRNA, set 1: 0.172; NDRG1 mRNA, set 1: 0.184
KIRREL2 (GeneID 84063) → BNIP3L mRNA, set 1: 0.21; NDRG1 mRNA, set 1: 0.266
